Laboratory results: the supplement of paper PMC7661543
The effect of the compound repeats well; differences between the knockouts mostly do not.

System: HCC-38
Experiment: relative cell number vs DMSO control (72 h) (% of DMSO); higher = less growth inhibition (more cells)
Protocol: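 QMAP-Seq: a pool of 5 breast cancer cell lines (ZR-75-1, SKBR3, HCC-38, MDA-MB-231, BT-20), each carrying 12 doxycycline-inducible Cas9 sgRNA perturbations (11 knockouts plus non-targeting sgNT), was treated with compounds for 72 h at four 10-fold doses (10 nM-10 uM or 1 nM-1 uM range). Barcodes were amplified and sequenced, and cell number was interpolated from 293T spike-in standard curves. The result is expressed as % of the median of DMSO wells. Two biological replicates.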

C[C@]1(O)C[C@@H](c2nc(-c3ccc4ccc(-c5ccccc5)nc4c3)c3c(N)nccn32)C1 [Linsitinib]
Conditions | relative cell number
sgRNA knockout: sgATF3, 10 nM | 106
sgRNA knockout: sgATF3, 100 nM | 102
sgRNA knockout: sgATF3, 1000 nM | 82.7
sgRNA knockout: sgATF3, 10000 nM | 78.46
sgRNA knockout: sgATF4, 10 nM | 109.55
sgRNA knockout: sgATF4, 100 nM | 98.5
sgRNA knockout: sgATF4, 1000 nM | 79.2
sgRNA knockout: sgATF4, 10000 nM | 76.1
sgRNA knockout: sgATF6, 10 nM | 106
sgRNA knockout: sgATF6, 100 nM | 111
sgRNA knockout: sgATF6, 1000 nM | 94.9
sgRNA knockout: sgATF6, 10000 nM | 94.4
sgRNA knockout: sgATG7, 10 nM | 106
sgRNA knockout: sgATG7, 100 nM | 102
sgRNA knockout: sgATG7, 1000 nM | 85.2
sgRNA knockout: sgATG7, 10000 nM | 78.4
sgRNA knockout: sgERN1, 10 nM | 94.5
sgRNA knockout: sgERN1, 100 nM | 108
sgRNA knockout: sgERN1, 1000 nM | 95.8
sgRNA knockout: sgERN1, 10000 nM | 85.9
sgRNA knockout: sgHSF1, 10 nM | 127
sgRNA knockout: sgHSF1, 100 nM | 112
sgRNA knockout: sgHSF1, 1000 nM | 100
sgRNA knockout: sgHSF1, 10000 nM | 85.9
sgRNA knockout: sgHSF2, 10 nM | 103
sgRNA knockout: sgHSF2, 100 nM | 111.6
sgRNA knockout: sgHSF2, 1000 nM | 92.5
sgRNA knockout: sgHSF2, 10000 nM | 79.4
sgRNA knockout: sgKEAP1, 10 nM | 117
sgRNA knockout: sgKEAP1, 100 nM | 118
sgRNA knockout: sgKEAP1, 1000 nM | 85.4
sgRNA knockout: sgKEAP1, 10000 nM | 87.6
sgRNA knockout: sgNFE2L2, 10 nM | 106
sgRNA knockout: sgNFE2L2, 100 nM | 95.6
sgRNA knockout: sgNFE2L2, 1000 nM | 76.8
sgRNA knockout: sgNFE2L2, 10000 nM | 72.1
sgRNA knockout: sgSLC35F2, 10 nM | 102
sgRNA knockout: sgSLC35F2, 100 nM | 112.7
sgRNA knockout: sgSLC35F2, 1000 nM | 93.1
sgRNA knockout: sgSLC35F2, 10000 nM | 82.3
sgRNA knockout: sgXBP1, 10 nM | 108
sgRNA knockout: sgXBP1, 100 nM | 98.1
sgRNA knockout: sgXBP1, 1000 nM | 78.8
sgRNA knockout: sgXBP1, 10000 nM | 76.7

Cc1ccc(NC(=O)c2ccc(CN3CCN(C)CC3)cc2)cc1Nc1nc(-c2cccnc2)cs1 [Masitinib]
Conditions | relative cell number
sgRNA knockout: sgATF3, 10 nM | 99.6
sgRNA knockout: sgATF3, 100 nM | 85.4
sgRNA knockout: sgATF3, 1000 nM | 83.9
sgRNA knockout: sgATF3, 10000 nM | 95
sgRNA knockout: sgATF4, 10 nM | 90.5
sgRNA knockout: sgATF4, 100 nM | 80.2
sgRNA knockout: sgATF4, 1000 nM | 91.4
sgRNA knockout: sgATF4, 10000 nM | 95.4
sgRNA knockout: sgATF6, 10 nM | 97.2
sgRNA knockout: sgATF6, 100 nM | 85.8
sgRNA knockout: sgATF6, 1000 nM | 91.6
sgRNA knockout: sgATF6, 10000 nM | 92.5
sgRNA knockout: sgATG7, 10 nM | 101
sgRNA knockout: sgATG7, 100 nM | 90.6
sgRNA knockout: sgATG7, 1000 nM | 86.1
sgRNA knockout: sgATG7, 10000 nM | 93.86
sgRNA knockout: sgERN1, 10 nM | 109
sgRNA knockout: sgERN1, 100 nM | 90.7
sgRNA knockout: sgERN1, 1000 nM | 89.8
sgRNA knockout: sgERN1, 10000 nM | 104
sgRNA knockout: sgHSF1, 10 nM | 121
sgRNA knockout: sgHSF1, 100 nM | 97.7
sgRNA knockout: sgHSF1, 1000 nM | 81.81
sgRNA knockout: sgHSF1, 10000 nM | 80
sgRNA knockout: sgHSF2, 10 nM | 99.17
sgRNA knockout: sgHSF2, 100 nM | 83
sgRNA knockout: sgHSF2, 1000 nM | 89.9
sgRNA knockout: sgHSF2, 10000 nM | 113
sgRNA knockout: sgKEAP1, 10 nM | 101
sgRNA knockout: sgKEAP1, 100 nM | 110
sgRNA knockout: sgKEAP1, 1000 nM | 89.6
sgRNA knockout: sgKEAP1, 10000 nM | 87.5
sgRNA knockout: sgNFE2L2, 10 nM | 103
sgRNA knockout: sgNFE2L2, 100 nM | 76.2
sgRNA knockout: sgNFE2L2, 1000 nM | 80.6
sgRNA knockout: sgNFE2L2, 10000 nM | 95.9
sgRNA knockout: sgSLC35F2, 10 nM | 105
sgRNA knockout: sgSLC35F2, 100 nM | 81.6
sgRNA knockout: sgSLC35F2, 1000 nM | 85.5
sgRNA knockout: sgSLC35F2, 10000 nM | 90.3
sgRNA knockout: sgXBP1, 10 nM | 96.5
sgRNA knockout: sgXBP1, 100 nM | 80
sgRNA knockout: sgXBP1, 1000 nM | 83.7
sgRNA knockout: sgXBP1, 10000 nM | 105

COC(=O)Nc1nc2cc(C(=O)c3ccccc3)ccc2[nH]1 [Mebendazole]
Conditions | relative cell number
sgRNA knockout: sgATF3, 10 nM | 92.7
sgRNA knockout: sgATF3, 100 nM | 82.5
sgRNA knockout: sgATF3, 1000 nM | 20.4
sgRNA knockout: sgATF3, 10000 nM | 19.7
sgRNA knockout: sgATF4, 10 nM | 90.5
sgRNA knockout: sgATF4, 100 nM | 84.6
sgRNA knockout: sgATF4, 1000 nM | 17.6
sgRNA knockout: sgATF4, 10000 nM | 19.3
sgRNA knockout: sgATF6, 10 nM | 81.3
sgRNA knockout: sgATF6, 100 nM | 73.2
sgRNA knockout: sgATF6, 1000 nM | 20.6
sgRNA knockout: sgATF6, 10000 nM | 18.4
sgRNA knockout: sgATG7, 10 nM | 96.2
sgRNA knockout: sgATG7, 100 nM | 85.1
sgRNA knockout: sgATG7, 1000 nM | 21.7
sgRNA knockout: sgATG7, 10000 nM | 21.3
sgRNA knockout: sgERN1, 10 nM | 96
sgRNA knockout: sgERN1, 100 nM | 85.7
sgRNA knockout: sgERN1, 1000 nM | 20.2
sgRNA knockout: sgERN1, 10000 nM | 23.8
sgRNA knockout: sgHSF1, 10 nM | 103
sgRNA knockout: sgHSF1, 100 nM | 70.8
sgRNA knockout: sgHSF1, 1000 nM | 23.7
sgRNA knockout: sgHSF1, 10000 nM | 25.3
sgRNA knockout: sgHSF2, 10 nM | 100
sgRNA knockout: sgHSF2, 100 nM | 82.8
sgRNA knockout: sgHSF2, 1000 nM | 20.9
sgRNA knockout: sgHSF2, 10000 nM | 21.2
sgRNA knockout: sgKEAP1, 10 nM | 91.2
sgRNA knockout: sgKEAP1, 100 nM | 84.6
sgRNA knockout: sgKEAP1, 1000 nM | 26.6
sgRNA knockout: sgKEAP1, 10000 nM | 27.1
sgRNA knockout: sgNFE2L2, 10 nM | 84.3
sgRNA knockout: sgNFE2L2, 100 nM | 88.5
sgRNA knockout: sgNFE2L2, 1000 nM | 16.1
sgRNA knockout: sgNFE2L2, 10000 nM | 19
sgRNA knockout: sgSLC35F2, 10 nM | 90.4
sgRNA knockout: sgSLC35F2, 100 nM | 77.9
sgRNA knockout: sgSLC35F2, 1000 nM | 18
sgRNA knockout: sgSLC35F2, 10000 nM | 24.6
sgRNA knockout: sgXBP1, 10 nM | 95.2
sgRNA knockout: sgXBP1, 100 nM | 90.6
sgRNA knockout: sgXBP1, 1000 nM | 19.9
sgRNA knockout: sgXBP1, 10000 nM | 22
